# Reference: publication PMC9008698
# Amino acid sequences for entries named in this document (tags omitted).
# UniProt P51617: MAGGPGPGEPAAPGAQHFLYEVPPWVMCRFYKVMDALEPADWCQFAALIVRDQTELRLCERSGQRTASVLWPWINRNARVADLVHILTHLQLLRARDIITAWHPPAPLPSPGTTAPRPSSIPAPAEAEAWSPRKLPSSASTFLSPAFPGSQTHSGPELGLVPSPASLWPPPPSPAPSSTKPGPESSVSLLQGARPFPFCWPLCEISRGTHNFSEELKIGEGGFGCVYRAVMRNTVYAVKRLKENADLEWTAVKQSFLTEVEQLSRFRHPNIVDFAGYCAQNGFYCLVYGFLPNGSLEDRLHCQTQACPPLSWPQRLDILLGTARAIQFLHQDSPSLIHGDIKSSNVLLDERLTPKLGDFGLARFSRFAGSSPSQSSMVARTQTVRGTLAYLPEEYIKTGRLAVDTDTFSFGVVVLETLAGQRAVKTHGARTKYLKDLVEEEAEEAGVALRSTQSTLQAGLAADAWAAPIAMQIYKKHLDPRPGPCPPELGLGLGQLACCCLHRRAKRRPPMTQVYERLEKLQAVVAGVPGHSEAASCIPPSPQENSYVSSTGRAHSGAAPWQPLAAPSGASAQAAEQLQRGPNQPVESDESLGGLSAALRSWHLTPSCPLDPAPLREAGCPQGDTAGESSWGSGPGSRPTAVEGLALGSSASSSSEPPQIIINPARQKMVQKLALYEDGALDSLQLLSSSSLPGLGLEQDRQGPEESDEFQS
# These are yes or no findings as the source states them, for the method shown. Binding seen in cells or lysates may run through a third protein. Some entries that bind do so weakly or less than the wild type.
# T1: TRAF6-C (C-terminal TRAF domain; residues 262–522) (UniProt Q9Y4K3)
# T1 sequence: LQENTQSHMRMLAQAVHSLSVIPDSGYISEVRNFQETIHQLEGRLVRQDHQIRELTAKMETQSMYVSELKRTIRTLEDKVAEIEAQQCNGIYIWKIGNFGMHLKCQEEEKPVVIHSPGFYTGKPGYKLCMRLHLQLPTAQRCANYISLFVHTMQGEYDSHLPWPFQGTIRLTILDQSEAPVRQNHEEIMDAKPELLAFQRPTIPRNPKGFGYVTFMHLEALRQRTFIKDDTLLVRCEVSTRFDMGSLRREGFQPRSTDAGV
# T2: TRAF2 (full length, overexpressed) (UniProt Q12933)
# T2 sequence: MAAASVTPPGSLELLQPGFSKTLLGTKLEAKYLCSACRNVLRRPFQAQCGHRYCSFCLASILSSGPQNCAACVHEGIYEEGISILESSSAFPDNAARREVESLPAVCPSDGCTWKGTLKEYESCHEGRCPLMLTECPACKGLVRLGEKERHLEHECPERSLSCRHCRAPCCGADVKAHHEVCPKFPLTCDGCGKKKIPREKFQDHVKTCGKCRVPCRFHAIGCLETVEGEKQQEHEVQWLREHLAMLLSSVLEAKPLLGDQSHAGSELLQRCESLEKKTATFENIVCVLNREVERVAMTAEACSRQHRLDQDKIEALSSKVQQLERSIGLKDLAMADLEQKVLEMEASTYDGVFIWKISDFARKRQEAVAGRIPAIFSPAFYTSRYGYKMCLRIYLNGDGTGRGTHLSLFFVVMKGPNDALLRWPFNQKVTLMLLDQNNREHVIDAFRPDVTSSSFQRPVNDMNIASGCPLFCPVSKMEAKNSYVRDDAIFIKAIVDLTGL
# T3: TRADD (overexpressed) (UniProt Q15628)
# T3 sequence: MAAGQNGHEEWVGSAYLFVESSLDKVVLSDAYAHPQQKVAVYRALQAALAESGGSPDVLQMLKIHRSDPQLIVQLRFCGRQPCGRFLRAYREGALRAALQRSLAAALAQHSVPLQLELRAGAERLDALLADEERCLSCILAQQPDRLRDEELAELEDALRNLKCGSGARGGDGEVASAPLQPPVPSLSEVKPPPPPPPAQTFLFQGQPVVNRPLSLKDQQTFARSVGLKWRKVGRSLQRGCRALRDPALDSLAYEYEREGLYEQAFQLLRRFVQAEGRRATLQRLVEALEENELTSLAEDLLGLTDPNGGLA
# B1: KIZ-Center (residues 221–440) (domain or fragment, UniProt Q2M2Z5 221-440)
# chain: SDNIDGKASLQIGEKMPVTASVLSEEEQTHCLEIGSNTRHGKSNLSEGKKSAELNSPLRERLSPENRTTDLKCDSSSGSEGEILTREHIEVEEKRASPPVSPIPVSEYCESENKWSQEKHSPWEGVSDHLAHREPKSQKPFRKMQEEEEESWSTSSDLTISISEDDLILESPEPQPNPGGKMEGEDGIEALKLIHAEQERVALSTEKNCILQTLSSPDSE
# B2: TRAF2-C (C-terminal TRAF domain; residues 272–501) (domain or fragment, UniProt Q12933 272-501)
# chain: CESLEKKTATFENIVCVLNREVERVAMTAEACSRQHRLDQDKIEALSSKVQQLERSIGLKDLAMADLEQKVLEMEASTYDGVFIWKISDFARKRQEAVAGRIPAIFSPAFYTSRYGYKMCLRIYLNGDGTGRGTHLSLFFVVMKGPNDALLRWPFNQKVTLMLLDQNNREHVIDAFRPDVTSSSFQRPVNDMNIASGCPLFCPVSKMEAKNSYVRDDAIFIKAIVDLTGL
# B3: KIZ-N (residues 1–220) (domain or fragment, UniProt Q2M2Z5 1-220)
# chain: MSRTLASAVPLSSPDYYERLGQLQHGLRDSEKKRLDLEKKLYEYNQSDTCRVKLKYVKLKNYLKEICESEKKAHTRNQEYLKRFERVQAHVVHFTTNTEKLQKLKLEYETQIKKMLCSKDSLGLKEELTDEDREKVAVHEGINSGTAMSRGLYQPATIFMGRQMSAILSMRDFSTEHKSPQPTKNFSIPDPHSHRQTAQSSNVTDSCVVQTSNDTQCLNK
# B4: KIZ-C (residues 441–674) (domain or fragment, UniProt Q2M2Z5 441-673)
# chain: KESSTNAPTREPGQTPDSDVPRAQVGQHVATLKEHDNSVKEEATALLRKALTEECGRRSAIHSSESSCSLPSILNDNSGIKEAKPAVWLNSVPTREQEVSSGCGDKSKKENVAADIPITETEAYQLLKKATLQDNTNQTENRFQKTDASVSHLSGLNIGSGAFETKTANKIASEASFSSSEGSPLSRHENKKKPVINLKSNALWDESDDSNSEIEAALRPRNHNTDDSDDFYD
# How the values were obtained:
# Assay in all cases: co-IP; HEK293T cells co-transfected with both partners; lysis in 0.5% Triton X-100, 20 mM Tris-HCl pH 7.5, 150 mM NaCl, 10% glycerol, 1 mM EDTA; anti-Flag agarose or anti-HA magnetic beads 4 h at 4°C; washes with 300 mM NaCl; immunoblotting
# [1] = biological target: T1, TRAF6-C (C-terminal TRAF domain; residues 262–522)
# [2] = biological target: T2, TRAF2 (full length, overexpressed)
# TRADD (overexpressed) = biological target: T3, TRADD (overexpressed)
Molecule,binding [2],other results
IRAK1 (overexpressed) (from UniProt P51617 1-712),,binding [1]: binds
B1,binds,
B2,,binding (TRADD (overexpressed)): binds
B3,no binding,
B4,no binding,
